Experimental data reported in patent US9951373B2, “Oplophorus-derived luciferases, novel coelenterazine substrates, and methods of use” (Promega Corporation, priority 2010, dated 2018).
At least one compound was matched to its structure with a doubt left.

Assay: Luminescence of OgLuc variants in E. coli lysates (secondary manual screen)
Assay type: biochemical
Conditions: change in luminescence with the compound as substrate

SMILES	Evolution trend: C1A4E to QC27 #9a
O=c1c(Cc2ccccc2)nc2c(Cc3ccccc3)[nH]c(-c3ccccc3)cn1-2 [coelenterazine-hh, bisdeoxycoelenterazine, reference compound]	DOWN 300X
CC(C)c1[nH]c(-c2ccccc2)cn2c(=O)c(Cc3ccc(O)cc3)nc1-2 [PBI-3841]	UP 440X
